{
  "source": "patent US11726079B2",
  "about": "“Lighting systems and methods of using lighting systems for in vitro potency assay for Photofrin” (Concordia Laboratories, Inc., priority 2012, dated 2023)",
  "tested_on": "A549 human lung carcinoma cells",
  "assay": "In vitro potency assay for Photofrin®: A549 cells, 4 h drug absorption, wash, 10 min irradiation at 400-650 nm, 24 h, XTT viability, 4PL EC50",
  "type": "cell-based",
  "description": "Cell passaging of A549 cells is performed using fixed seeding densities to reduce assay variation resulting from cell culture conditions. […] Working in very low light conditions, Photofrin® is reconstituted in normal saline to 2.5 mg/mL and diluted further in culture medium at twice the desired final assay concentration, typically 140 μg/mL. A series of two-fold dilutions were then prepared from the 140 μg/mL solution and the diluted drug was added to the cells at 1:1 (v/v) according to the diagram shown in FIG. 11.\n[…] The plate is then removed from the incubator, the drug is aspirated, the wells are washed with Dulbecco's phosphate buffered saline (DPBS) and fresh, pre-warmed medium is added to the wells. […] […] The wells covered with foil strips are important controls for the activity of Photofrin® in the absence of irradiation and the effect of light on the cells in the absence of drug.\nThe optical absorbance of the wells in column 1 (high drug concentration, no cells) is evaluated for absorption at 450 nm to ensure that the drug is not interfering with the XTT assay. The percent viability of each of the wells in columns 2-9 and 11 is calculated relative to the mean value of column 10 (cell control, no drug, no light). For each dose response obtained, a four parameter logistic (4PL) nonlinear regression analysis is performed of the percent viability versus the log-Photofrin® concentration. The point of inflection of the regression curve (C value) is defined as the EC50 and used in the calculation of relative potency. Curve fitting and calculation of the EC50 is performed with Softmax v5.4.2 (Molecular Devices, Inc.) or Prism v.5.04 (GraphPad, Software Inc.) software. The mean percent viability of columns 9 and 11 is also calculated.\n• 1. Materials and Reagents • 1.1. A549 Human Lung Carcinoma (ATCC—Cat. No.: CCL-185) • 1.2. 25 cm^2 Flasks (Corning—Cat. No.: 431463, or equivalent) • 1.3. 75 cm^2 Flasks (Corning—Cat. No.: 431464, or equivalent) • 1.4. 50 mL tubes (Fisher Scientific—Cat. No. 17-512F, or equivalent) • 1.5. Hemacytometer • 1.6. RPMI-1640 (+) phenol red (Lonza—Cat. No.: 12-167F, or equivalent) • 1.7. HI-FBS (Gibco—Life Technologies—Cat No.: 10082-147, or equivalent) • 1.8. 200 mM L-Glutamine (Lonza—Cat. No.: 17-605E, or equivalent) • 1.9. 0.25% Trypsin-EDTA (Gibco—Cat. No.: 25200-056, or equivalent) • 2. Instruments • 2.1. Forma Scientific centrifuge with swinging bucket rotor (Model 5682, or equivalent) • 2.2. Water bath set at 37° C. • 2.3. […] Prepared Reagents • 3.1. RPMI-1640 Complete Media • 3.1.1. 500 mL bottle of RPMI-1640 basal media containing phenol red • 3.1.2. Add 50 mL HI-FBS • 3.1.3. Add 5.5 mL of 200 mM L-Glutamine • 4. Procedure • 4.1. Remove one vial of A549 lung carcinoma cells from liquid nitrogen storage and after ensuring that the vial is tightly closed, rapidly thaw vial by holding all but the top of the vial submerged in a 37° C. water bath until the vial contents begins to thaw but while ice still remains. • 4.2. Liberally spray the vial with 70% ethanol, wipe with tissue, and place into a laminar flow hood. • 4.3. Transfer the contents of the vial to a 50 mL conical tube containing 9 mL RPMI-1640 complete medium containing phenol red (Step 3.1) (hereafter referred to as complete medium in this method). • 4.4. Centrifuge the tube in a swing bucket rotor set at 1200 RPM (220 RCF) for five minutes at room temperature. • 4.5. Discard supernatant and gently flick the tube to resuspend the cells in the residual volume left in the tube. • 4.6. Add 5 mL complete medium, transfer the cell solution to a 25 cm^2 flask, and then place the flask into a 37° C. incubator with 5% CO2. • 4.7. Monitor the flask daily and when the cells reach approximately 80% confluence, remove the media, and wash the cells by adding 2 mL DPBS to the flask. Ensure that all cells are rinsed and discard the DPBS. • 4.8. Add 1 mL 0.25% trypsin-EDTA to prewash the cells, tip flask to coat all cells, and discard the trypsin. • 4.9. […]",
  "data": [
    {"substance": "porfimer sodium [Photofrin®]", "values": [
      {"measurement": "difference between results obtained with XTT and MTT endpoints", "setting": "Photofrin® dose response curve, EC50 with XTT versus MTT", "value": "approximately 15%"},
      {"measurement": "increase in the EC50 with black plates relative to clear plates", "setting": "black plates with black lids versus clear plates", "value": 4, "unit": "fold"},
      {"measurement": "deviation of Test sample potency from the expected value of 0.5", "setting": "incubation with Photofrin® for 4.5 hours", "value": "≤ 15", "unit": "%"},
      {"measurement": "deviation of Test sample potency from the expected value of 0.5", "setting": "irradiation times 8, 9, 10, 11 and 12 minutes, all conditions", "value": "≤ 11", "unit": "%"},
      {"measurement": "deviation of Test sample potency from the expected value of 0.5", "setting": "operators AB and KP, all potency values", "value": "≤ 13", "unit": "%"},
      {"measurement": "deviation of Test sample potency from the expected value", "setting": "post-irradiation incubation times from 22-26 hours", "value": "≤ 15", "unit": "%"}
    ]}
  ]
}
